Results deposited as PubChem BioAssay AID652243 (Drosophila RNAi Screening Center, 2013).
In all, the deposit lists about 24,000 reagents; below is an unselected part of those with a known target gene and a result. In the full data, 246 (1%) were called active. 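Plates not normalised; calls are printed but the firefly/Renilla ratio behind them is not deposited; fold cut for lowering reported inconsistently.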 The raw values are shown without normalisation. Unmarked entries are inactive. Reagents against one gene are numbered here. Not stated in the record: the amount of reagent.

Purpose: 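Knock-downs that decrease or increase androgen receptor reporter signal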 (primary screen)
Cells: Drosophila S2R+ cells
Reagents: long dsRNA against Drosophila genes
Timing: 72 h (48 h, then 24 h hormone)
Conditions: synthetic androgen R1881 at 10 nM for 24 h
Detection: 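Firefly light from an androgen-responsive reporter and Renilla control light per well, raw and unnormalised, for each of two replicates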
Scale: firefly reporter light: higher = more light from androgen-responsive reporter; Renilla control light: higher = more constitutive control signal (cell number, transfection)
Active means: 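Hit when the log firefly-to-Renilla ratio dropped or increased by a fixed fold versus the mean of GFP or LacZ controls across duplicate plates; lowering cut given as 1.5 and as 3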
Calls: active = hit: reporter lowered or raised; inactive = no hit

The opening 2 entries as a preview:
Cht5 #1 → firefly reporter light, replicate 1: 5.62e5; firefly reporter light, replicate 2: 5.13e5; Renilla control light, replicate 1: 1.61e6; Renilla control light, replicate 2: 1.59e6
Cht5 #2 → firefly reporter light, replicate 1: 4.07e5; firefly reporter light, replicate 2: 4.22e5; Renilla control light, replicate 1: 7.83e5; Renilla control light, replicate 2: 8.63e5

The list itself, from the first entry:
Cht5 #1 → firefly reporter light, replicate 1: 5.62e5; firefly reporter light, replicate 2: 5.13e5; Renilla control light, replicate 1: 1.61e6; Renilla control light, replicate 2: 1.59e6
Cht5 #2 → firefly reporter light, replicate 1: 4.07e5; firefly reporter light, replicate 2: 4.22e5; Renilla control light, replicate 1: 7.83e5; Renilla control light, replicate 2: 8.63e5
LManII → firefly reporter light, replicate 1: 8.61e5; firefly reporter light, replicate 2: 1.17e6; Renilla control light, replicate 1: 1.96e6; Renilla control light, replicate 2: 2.19e6
slx1 → firefly reporter light, replicate 1: 37049; firefly reporter light, replicate 2: 76303; Renilla control light, replicate 1: 1.17e6; Renilla control light, replicate 2: 1.67e6
CG32814 #1 → firefly reporter light, replicate 1: 5.82e5; firefly reporter light, replicate 2: 5.15e5; Renilla control light, replicate 1: 1.68e5; Renilla control light, replicate 2: 1.21e5
CG32814 #2 → firefly reporter light, replicate 1: 3.67e5; firefly reporter light, replicate 2: 2.98e5; Renilla control light, replicate 1: 7.04e5; Renilla control light, replicate 2: 6.07e5
CG13135 #1 → firefly reporter light, replicate 1: 1.28e5; firefly reporter light, replicate 2: 96453; Renilla control light, replicate 1: 1.15e6; Renilla control light, replicate 2: 8.44e5
CG13135 #2 → firefly reporter light, replicate 1: 4.38e5; firefly reporter light, replicate 2: 3.30e5; Renilla control light, replicate 1: 4.86e5; Renilla control light, replicate 2: 7.73e5
CG33687 → firefly reporter light, replicate 1: 9.29e5; firefly reporter light, replicate 2: 6.16e5; Renilla control light, replicate 1: 2.33e6; Renilla control light, replicate 2: 2.27e6
Pex10 #1 → firefly reporter light, replicate 1: 4.05e5; firefly reporter light, replicate 2: 4.47e5; Renilla control light, replicate 1: 2.98e6; Renilla control light, replicate 2: 2.63e6
Pex10 #2 → firefly reporter light, replicate 1: 5.73e5; firefly reporter light, replicate 2: 6.65e5; Renilla control light, replicate 1: 2.14e6; Renilla control light, replicate 2: 2.13e6
CG45105 #1 → firefly reporter light, replicate 1: 1.31e5; firefly reporter light, replicate 2: 94196; Renilla control light, replicate 1: 1.17e6; Renilla control light, replicate 2: 1.36e6
CG45105 #2 → firefly reporter light, replicate 1: 3.03e5; firefly reporter light, replicate 2: 2.99e5; Renilla control light, replicate 1: 8.46e5; Renilla control light, replicate 2: 7.91e5
CG13474 → firefly reporter light, replicate 1: 3.12e5; firefly reporter light, replicate 2: 1.75e5; Renilla control light, replicate 1: 2.44e6; Renilla control light, replicate 2: 1.33e6
CG14073 #1 → firefly reporter light, replicate 1: 2.08e5; firefly reporter light, replicate 2: 2.31e5; Renilla control light, replicate 1: 2.04e6; Renilla control light, replicate 2: 2.87e6
CG14073 #2 → firefly reporter light, replicate 1: 3.21e5; firefly reporter light, replicate 2: 4.63e5; Renilla control light, replicate 1: 7.50e5; Renilla control light, replicate 2: 7.59e5
CG5440 #1 → firefly reporter light, replicate 1: 89416; firefly reporter light, replicate 2: 1.12e5; Renilla control light, replicate 1: 9.58e5; Renilla control light, replicate 2: 6.86e5
CG5440 #2 → firefly reporter light, replicate 1: 4.82e5; firefly reporter light, replicate 2: 6.56e5; Renilla control light, replicate 1: 9.03e5; Renilla control light, replicate 2: 9.03e5
CG4610 #1 → firefly reporter light, replicate 1: 3.45e5; firefly reporter light, replicate 2: 3.67e5; Renilla control light, replicate 1: 2.99e6; Renilla control light, replicate 2: 2.50e6
CG4610 #2 → firefly reporter light, replicate 1: 3.81e5; firefly reporter light, replicate 2: 7.94e5; Renilla control light, replicate 1: 8.81e5; Renilla control light, replicate 2: 2.28e6
CG4610 #3 → firefly reporter light, replicate 1: 3.68e5; firefly reporter light, replicate 2: 4.30e5; Renilla control light, replicate 1: 1.08e6; Renilla control light, replicate 2: 1.08e6
